One experiment has as its target T1, Flag-tagged Sufu (UniProt Q9UMX1).
T1 sequence: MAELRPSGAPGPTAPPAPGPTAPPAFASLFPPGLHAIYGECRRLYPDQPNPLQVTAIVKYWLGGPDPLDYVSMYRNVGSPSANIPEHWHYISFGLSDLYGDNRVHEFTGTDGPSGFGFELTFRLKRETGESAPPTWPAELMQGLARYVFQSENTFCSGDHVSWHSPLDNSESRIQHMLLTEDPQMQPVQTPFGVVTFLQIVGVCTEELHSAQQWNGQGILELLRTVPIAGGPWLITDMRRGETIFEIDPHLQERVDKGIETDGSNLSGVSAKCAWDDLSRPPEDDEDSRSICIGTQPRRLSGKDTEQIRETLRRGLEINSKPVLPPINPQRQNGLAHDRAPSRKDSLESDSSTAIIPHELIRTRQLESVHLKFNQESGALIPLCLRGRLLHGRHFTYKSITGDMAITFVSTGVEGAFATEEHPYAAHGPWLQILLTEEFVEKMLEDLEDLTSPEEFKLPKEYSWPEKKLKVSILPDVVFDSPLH
Nature of the experiment: co-IP; NIH3T3 cells transfected with HA-Gli1 or HA-Gli2 and Flag-Sufu, without exogenous Hck; immunoprecipitated with anti-Flag; western blot with anti-HA or anti-Flag; bands quantified with ImageJ against the input. (Immunoblotting shows a protein as a band on a membrane.)

Sequences of proteins named here, by UniProt entry; tags and fusion partners are left off. Residues count along the entry.
UniProt P08151: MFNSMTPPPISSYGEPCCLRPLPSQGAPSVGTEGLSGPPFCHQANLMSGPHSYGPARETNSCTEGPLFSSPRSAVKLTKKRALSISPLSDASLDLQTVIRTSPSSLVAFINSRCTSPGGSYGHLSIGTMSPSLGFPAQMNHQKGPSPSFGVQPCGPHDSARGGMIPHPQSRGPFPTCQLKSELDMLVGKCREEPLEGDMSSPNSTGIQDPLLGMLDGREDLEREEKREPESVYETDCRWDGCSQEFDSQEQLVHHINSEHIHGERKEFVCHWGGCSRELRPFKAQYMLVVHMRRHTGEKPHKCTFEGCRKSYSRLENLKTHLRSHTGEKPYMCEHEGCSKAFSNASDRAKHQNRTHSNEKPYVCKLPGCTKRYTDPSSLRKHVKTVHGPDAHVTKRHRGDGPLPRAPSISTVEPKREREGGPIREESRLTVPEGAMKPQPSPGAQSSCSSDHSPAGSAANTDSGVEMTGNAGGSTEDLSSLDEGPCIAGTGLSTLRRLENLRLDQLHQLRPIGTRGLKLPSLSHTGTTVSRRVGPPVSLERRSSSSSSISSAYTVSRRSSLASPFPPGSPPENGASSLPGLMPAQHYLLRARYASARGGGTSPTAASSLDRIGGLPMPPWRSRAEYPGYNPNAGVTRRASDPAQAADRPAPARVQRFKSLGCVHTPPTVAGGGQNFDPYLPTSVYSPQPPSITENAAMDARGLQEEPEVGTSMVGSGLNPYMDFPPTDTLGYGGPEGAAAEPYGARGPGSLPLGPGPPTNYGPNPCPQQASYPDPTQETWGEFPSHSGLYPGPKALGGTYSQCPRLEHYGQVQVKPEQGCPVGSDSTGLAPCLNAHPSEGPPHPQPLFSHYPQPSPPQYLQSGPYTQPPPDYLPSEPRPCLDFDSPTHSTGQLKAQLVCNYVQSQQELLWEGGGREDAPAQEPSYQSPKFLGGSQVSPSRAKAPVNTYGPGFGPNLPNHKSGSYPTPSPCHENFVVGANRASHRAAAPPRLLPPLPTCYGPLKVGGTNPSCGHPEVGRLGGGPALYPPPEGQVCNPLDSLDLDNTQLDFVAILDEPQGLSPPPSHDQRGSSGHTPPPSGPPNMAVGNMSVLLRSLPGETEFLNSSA
UniProt P10070: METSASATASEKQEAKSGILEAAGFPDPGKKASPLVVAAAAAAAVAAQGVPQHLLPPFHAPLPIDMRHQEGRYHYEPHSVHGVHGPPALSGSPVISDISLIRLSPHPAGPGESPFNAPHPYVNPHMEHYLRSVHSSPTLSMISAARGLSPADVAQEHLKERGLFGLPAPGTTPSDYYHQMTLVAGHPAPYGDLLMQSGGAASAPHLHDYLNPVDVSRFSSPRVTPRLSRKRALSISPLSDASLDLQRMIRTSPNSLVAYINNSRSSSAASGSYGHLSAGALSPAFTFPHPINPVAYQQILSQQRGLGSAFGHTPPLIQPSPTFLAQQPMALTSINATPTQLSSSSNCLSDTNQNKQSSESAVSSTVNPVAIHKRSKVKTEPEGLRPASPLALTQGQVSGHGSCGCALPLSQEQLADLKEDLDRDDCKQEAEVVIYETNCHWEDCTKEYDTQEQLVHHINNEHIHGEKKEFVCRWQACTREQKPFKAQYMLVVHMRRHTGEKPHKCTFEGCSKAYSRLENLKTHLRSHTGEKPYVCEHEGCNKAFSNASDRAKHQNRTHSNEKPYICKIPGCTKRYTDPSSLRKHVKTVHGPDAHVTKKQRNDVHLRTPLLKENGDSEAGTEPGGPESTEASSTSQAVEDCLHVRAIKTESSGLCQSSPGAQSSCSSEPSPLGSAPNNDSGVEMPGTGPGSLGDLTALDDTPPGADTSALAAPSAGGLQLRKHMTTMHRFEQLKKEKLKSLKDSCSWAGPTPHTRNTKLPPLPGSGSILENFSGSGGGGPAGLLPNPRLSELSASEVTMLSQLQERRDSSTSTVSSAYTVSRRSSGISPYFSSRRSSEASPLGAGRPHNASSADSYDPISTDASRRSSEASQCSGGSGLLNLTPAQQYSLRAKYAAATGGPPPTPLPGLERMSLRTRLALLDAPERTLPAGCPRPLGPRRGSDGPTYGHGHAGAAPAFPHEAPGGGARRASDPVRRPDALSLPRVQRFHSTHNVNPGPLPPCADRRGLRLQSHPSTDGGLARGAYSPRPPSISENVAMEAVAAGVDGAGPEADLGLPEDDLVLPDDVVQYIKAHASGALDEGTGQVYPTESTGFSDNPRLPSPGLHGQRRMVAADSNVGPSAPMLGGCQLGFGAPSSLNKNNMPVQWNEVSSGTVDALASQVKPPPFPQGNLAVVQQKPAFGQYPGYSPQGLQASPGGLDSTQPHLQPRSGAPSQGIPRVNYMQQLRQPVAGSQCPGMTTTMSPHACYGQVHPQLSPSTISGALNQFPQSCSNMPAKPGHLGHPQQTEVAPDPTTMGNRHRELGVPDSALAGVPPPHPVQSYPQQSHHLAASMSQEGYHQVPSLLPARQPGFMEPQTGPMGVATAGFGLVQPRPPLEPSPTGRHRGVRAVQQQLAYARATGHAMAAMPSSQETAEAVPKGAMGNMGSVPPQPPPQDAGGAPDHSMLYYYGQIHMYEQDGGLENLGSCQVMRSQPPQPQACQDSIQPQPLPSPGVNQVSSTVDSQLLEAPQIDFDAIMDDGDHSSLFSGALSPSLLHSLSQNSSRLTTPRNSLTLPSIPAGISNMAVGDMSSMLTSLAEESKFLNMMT
UniProt P08631, residues 22-526: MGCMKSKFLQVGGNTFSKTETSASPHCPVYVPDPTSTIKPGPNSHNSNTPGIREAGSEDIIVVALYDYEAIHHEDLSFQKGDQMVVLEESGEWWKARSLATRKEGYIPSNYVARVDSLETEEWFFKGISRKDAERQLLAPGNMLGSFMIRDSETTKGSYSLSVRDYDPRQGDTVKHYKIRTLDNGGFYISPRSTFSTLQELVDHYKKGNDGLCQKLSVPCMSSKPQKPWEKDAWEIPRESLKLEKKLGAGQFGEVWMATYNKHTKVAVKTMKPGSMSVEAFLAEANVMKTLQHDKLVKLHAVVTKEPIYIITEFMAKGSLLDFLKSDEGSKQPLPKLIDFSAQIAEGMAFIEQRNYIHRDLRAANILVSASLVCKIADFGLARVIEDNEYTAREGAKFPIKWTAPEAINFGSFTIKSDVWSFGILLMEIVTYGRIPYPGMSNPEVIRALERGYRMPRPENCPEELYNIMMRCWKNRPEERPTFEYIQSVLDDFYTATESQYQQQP

A further experiment has as its target Gli1-GFP (human) (UniProt P08151). The experiment is described as follows: co-IP; NIH3T3 cells transfected with Gli1-GFP and/or HA-Hck; lysate in 50 mM Tris pH 8.0, 150 mM NaCl, 1 mM EDTA, 1% Triton X-100; immunoprecipitated with anti-GFP, protein A beads, 4 °C overnight; western blot with anti-Gli1, anti-HA and 4G10.

These are yes or no findings as the source states them, for the method shown. Binding seen in cells or lysates may run through a third protein. Some results given as binding are weak or reduced against the parent protein; the word gives no strength. For some assays here: Tags and fused reporters may be left off the sequences shown.

For the substance HA-Gli2 (from UniProt P10070 1-1586), the binding result with Flag-tagged Sufu is “binds”. As to “HA-Hck (from UniProt P08631-2 1-505) (enzyme)”, the binding result in the experiment with Gli1-GFP (human) is recorded as “binds”.

Source of the values: article PMC4670963.
